PubChem BioAssay AID504774, Drosophila RNAi Screening Center | 2011
The deposit covers about 23,000 reagents; shown is an unselected part of those that have a named target and a result. 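Values are quantile-normalised luminescence on an arbitrary scale; higher means more cells surviving MMS.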 A plus sign joins genes that one reagent is predicted to hit.

Aim: 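Genes required for cells to withstand methyl methanesulphonate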 (primary screen)
System: Drosophila Kc167 cells
Reagents: long dsRNA against Drosophila genes, about 0.25 µg dsRNA per well
Duration: about 6 days: 3 days knock-down, then 3 days with or without MMS
Treatment: methyl methanesulphonate 0.004% (w/v) for 3 days after knock-down
Detection: 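Viability in wells given MMS, read as ATP luminescence, normalised by quantiles plate by plate and averaged across replicates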
Direction: mean viability with MMS and viability with MMS: higher = more surviving cells after MMS

The opening 4 records, ahead of the listing:
no.	gene knocked down	PubChem SID	mean viability with MMS	viability with MMS, replicate 1	viability with MMS, replicate 2
1	Ssu72	SID104199364	3.49e6	4.02e6	3.91e6
2	Ns2	SID104186785	3.30e6	3.77e6	3.78e6
3	His-Psi:CR31616 + His-Psi:CR31615	SID104183552	3.01e6	3.75e6	3.66e6
4	Vha100-3	SID104185552	3.53e6	4.06e6	3.95e6

Results, from the start:
no.	gene knocked down	PubChem SID	mean viability with MMS	viability with MMS, replicate 1	viability with MMS, replicate 2
1	Ssu72	SID104199364	3.49e6	4.02e6	3.91e6
2	Ns2	SID104186785	3.30e6	3.77e6	3.78e6
3	His-Psi:CR31616 + His-Psi:CR31615	SID104183552	3.01e6	3.75e6	3.66e6
4	Vha100-3	SID104185552	3.53e6	4.06e6	3.95e6
5	CG13838	SID104194480	3.42e6	4.07e6	4.01e6
6	CG31296	SID104192884	3.47e6	3.94e6	3.95e6
7	Appl	SID104197520	3.41e6	3.91e6	3.84e6
8	CG8861	SID104192523	3.38e6	3.78e6	3.90e6
9	CG8861	SID104196241	3.52e6	4.05e6	3.95e6
10	CG42634 + CG42635	SID104182242	3.51e6	4.07e6	3.90e6
11	CG1504	SID104200305	3.50e6	3.98e6	3.97e6
12	CG18557	SID104180316	3.38e6	3.82e6	3.76e6
13	Tbcb	SID104185859	3.61e6	4.05e6	4.16e6
14	Cpsf160	SID104185760	3.50e6	3.95e6	3.97e6
15	Grp170	SID104198316	3.69e6	4.11e6	4.22e6
16	CG12516	SID104194316	3.65e6	4.14e6	4.14e6
17	Spt-I	SID104186652	3.49e6	3.95e6	3.91e6
18	Kcmf1	SID104194251	3.54e6	4.10e6	3.92e6
19	Cdk12	SID104191628	2.98e6	3.61e6	3.59e6
20	Cdk12	SID104202680	2.21e6	2.04e6	2.57e6
21	rho-5	SID104182639	3.82e6	3.84e6	3.81e6
22	Ir31a	SID104201849	3.45e6	3.93e6	3.94e6
23	Dcr-1	SID104195438	3.56e6	4.09e6	4.00e6
24	Echs1	SID104186791	3.50e6	3.92e6	3.85e6
25	SerT	SID104184447	3.64e6	4.20e6	4.05e6
26	CG3294	SID104180382	3.57e6	4.16e6	3.92e6
27	Hsp60D	SID104182335	3.63e6	4.19e6	4.02e6
28	CG11106	SID104199173	3.60e6	4.15e6	3.99e6
29	CG12071	SID104194263	2.81e6	3.49e6	3.49e6
30	CG12071	SID104202329	3.25e6	3.73e6	3.59e6
31	drd	SID104199135	3.48e6	3.99e6	3.90e6
32	drd	SID104201203	3.58e6	3.94e6	4.18e6
33	CkIIalpha-i1	SID104190907	3.86e6	4.27e6	4.32e6
34	b6	SID104198532	3.46e6	3.86e6	3.99e6
35	l(2)gl	SID104180617	1.96e6	4.13e6	4.08e6
36	Catsup	SID104183080	3.51e6	4.00e6	3.96e6
37	Mccc1	SID104195209	3.63e6	4.22e6	4.00e6
38	RpS14a	SID104198502	2.95e6	3.42e6	3.53e6
39	CG12155	SID104197618	3.45e6	3.97e6	3.76e6
40	CG12155	SID104202651	3.78e6	4.31e6	4.25e6
41	pyx	SID104188302	3.60e6	4.13e6	4.00e6
42	pyx	SID104188303	3.31e6	4.00e6	3.55e6
43	His3.3B	SID104197565	3.50e6	3.85e6	4.07e6
44	His3.3B	SID104198465	3.35e6	3.79e6	3.84e6
45	CG13313	SID104189776	3.52e6	3.97e6	4.02e6
46	Jon65Ai	SID104189523	3.75e6	4.17e6	4.31e6
